Results reported in US6727227B1 (Obschestvo S Ogranichennoi Otvetstven-Nostiju “Klinika …, priority 2002, dated 2004).
*: point of attachment. Cbz = O=C(OCc1ccccc1)*; OBn = c1ccc(CO*)cc1

Experiment: general procedure: solution-phase peptide synthesis; N,N'-dicyclohexylcarbodiimide / N-oxybenzotriazol; N-oxysuccinimide ester
Conditions: acetate, transferred to free form

Substance | step yield (coupling step) | final HPLC purity (late stage modification step, 220 nm)
Cbz-AE(OBn)D(OBn)G-OBn | 82% | 
L-alanyl-L-glutamyl-L-aspartyl-glycine |  | 98.45%
